Experimental data: publication PMC10937394

The chains behind the UniProt entries cited, without tags or fusion partners.
UniProt O54983: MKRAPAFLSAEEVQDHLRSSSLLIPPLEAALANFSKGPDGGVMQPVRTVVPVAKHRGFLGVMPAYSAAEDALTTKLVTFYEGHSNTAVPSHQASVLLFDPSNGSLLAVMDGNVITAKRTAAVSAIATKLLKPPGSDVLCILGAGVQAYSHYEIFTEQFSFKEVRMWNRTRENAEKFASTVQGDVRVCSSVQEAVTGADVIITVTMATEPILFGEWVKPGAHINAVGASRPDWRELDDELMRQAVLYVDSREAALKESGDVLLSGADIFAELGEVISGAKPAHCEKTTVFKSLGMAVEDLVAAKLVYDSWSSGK
UniProt P03921: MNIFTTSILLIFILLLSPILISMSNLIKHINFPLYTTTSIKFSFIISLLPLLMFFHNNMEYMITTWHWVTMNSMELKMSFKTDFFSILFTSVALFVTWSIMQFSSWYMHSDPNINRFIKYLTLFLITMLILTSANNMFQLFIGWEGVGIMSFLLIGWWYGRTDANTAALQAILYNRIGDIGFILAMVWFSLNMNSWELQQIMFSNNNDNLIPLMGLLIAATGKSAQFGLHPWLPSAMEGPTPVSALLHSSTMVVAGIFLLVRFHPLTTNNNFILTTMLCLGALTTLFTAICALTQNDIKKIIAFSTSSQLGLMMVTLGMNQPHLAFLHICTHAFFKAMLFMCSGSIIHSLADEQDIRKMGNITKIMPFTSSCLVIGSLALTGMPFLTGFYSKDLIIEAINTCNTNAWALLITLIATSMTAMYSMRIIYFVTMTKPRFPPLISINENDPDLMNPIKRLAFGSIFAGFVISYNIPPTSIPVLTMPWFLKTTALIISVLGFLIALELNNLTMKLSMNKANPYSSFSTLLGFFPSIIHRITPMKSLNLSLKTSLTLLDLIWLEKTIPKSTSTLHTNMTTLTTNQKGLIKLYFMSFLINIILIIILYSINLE
UniProt P20357: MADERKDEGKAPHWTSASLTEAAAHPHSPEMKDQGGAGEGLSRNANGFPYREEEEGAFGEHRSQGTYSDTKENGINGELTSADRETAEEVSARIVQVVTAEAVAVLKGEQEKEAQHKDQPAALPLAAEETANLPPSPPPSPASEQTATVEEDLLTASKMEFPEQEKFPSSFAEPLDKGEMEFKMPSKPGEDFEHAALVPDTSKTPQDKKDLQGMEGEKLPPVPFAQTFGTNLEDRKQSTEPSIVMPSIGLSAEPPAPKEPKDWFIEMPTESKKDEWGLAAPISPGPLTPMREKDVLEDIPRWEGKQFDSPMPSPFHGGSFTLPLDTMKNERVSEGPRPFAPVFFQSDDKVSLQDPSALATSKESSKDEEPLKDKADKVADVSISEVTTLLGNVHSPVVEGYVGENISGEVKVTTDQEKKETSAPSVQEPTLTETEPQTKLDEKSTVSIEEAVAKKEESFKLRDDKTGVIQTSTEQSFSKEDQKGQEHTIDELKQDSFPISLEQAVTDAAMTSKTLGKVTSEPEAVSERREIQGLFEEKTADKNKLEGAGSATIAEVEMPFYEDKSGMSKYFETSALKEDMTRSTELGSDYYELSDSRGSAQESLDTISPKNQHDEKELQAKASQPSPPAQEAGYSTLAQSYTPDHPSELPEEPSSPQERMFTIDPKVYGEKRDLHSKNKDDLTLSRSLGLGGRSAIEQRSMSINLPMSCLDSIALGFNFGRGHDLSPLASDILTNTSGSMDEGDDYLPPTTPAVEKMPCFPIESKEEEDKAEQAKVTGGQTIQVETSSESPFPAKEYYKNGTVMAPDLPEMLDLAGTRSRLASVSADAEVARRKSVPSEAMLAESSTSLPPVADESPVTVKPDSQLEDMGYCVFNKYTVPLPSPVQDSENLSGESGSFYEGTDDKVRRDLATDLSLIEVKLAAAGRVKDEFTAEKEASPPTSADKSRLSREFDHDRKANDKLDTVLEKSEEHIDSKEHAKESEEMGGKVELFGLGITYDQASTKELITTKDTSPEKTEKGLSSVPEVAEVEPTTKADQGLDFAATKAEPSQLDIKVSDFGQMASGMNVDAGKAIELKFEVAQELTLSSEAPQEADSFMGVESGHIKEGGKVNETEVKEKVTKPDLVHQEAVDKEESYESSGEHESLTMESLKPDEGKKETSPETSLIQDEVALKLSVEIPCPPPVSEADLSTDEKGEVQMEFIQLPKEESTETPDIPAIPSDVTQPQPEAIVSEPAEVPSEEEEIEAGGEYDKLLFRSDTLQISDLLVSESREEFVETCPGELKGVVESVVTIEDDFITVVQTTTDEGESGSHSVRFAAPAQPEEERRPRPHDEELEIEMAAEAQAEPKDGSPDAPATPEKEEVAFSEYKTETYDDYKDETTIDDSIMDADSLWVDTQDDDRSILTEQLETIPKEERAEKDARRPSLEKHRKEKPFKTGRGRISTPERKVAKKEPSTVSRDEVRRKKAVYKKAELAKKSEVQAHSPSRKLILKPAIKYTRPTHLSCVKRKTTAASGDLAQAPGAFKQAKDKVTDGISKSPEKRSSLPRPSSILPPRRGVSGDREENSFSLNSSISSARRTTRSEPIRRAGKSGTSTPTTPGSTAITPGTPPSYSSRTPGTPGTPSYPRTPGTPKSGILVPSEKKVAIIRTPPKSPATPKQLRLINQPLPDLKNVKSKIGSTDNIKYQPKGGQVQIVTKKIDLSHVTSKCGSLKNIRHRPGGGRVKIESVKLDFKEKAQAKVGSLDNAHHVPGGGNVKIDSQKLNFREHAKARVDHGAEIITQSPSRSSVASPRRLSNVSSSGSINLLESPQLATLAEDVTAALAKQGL

Target: μ-crystallin–BioID2 (mouse) (UniProt O54983)
Experiment: proximity labelling; in vivo BioID2: AAV Crym-BioID2 in striatal astrocytes of mice, biotin 24 mg per kg subcutaneously for seven days; biotinylated proteins of the striatum lysate purified on NeutrAvidin agarose, LC-MS/MS; against the Crym-GFP control (log2FC > 1 and FDR < 0.05; SAINTexpress FDR cut-off 0.05); proximal proteins within ~10 nm are biotinylated

binding: binds
Molecule: MT-ND5 (from UniProt P03921 1-607)

binding: binds
Molecule: SYNGAP1 (from UniProt F6SEU4 1-1340)

binding: binds
Molecule: MAP2 (from UniProt P20357 1-1828)

binding: binds
Molecule: USP9X (from UniProt P70398 1-2559)

binding: binds
B1: BCR (protein, UniProt Q6PAJ1 1-1270)
chain: MVDSVGFAEAWRAQFPDSEPPRMELRSVGDIEQELERCKASIRRLEQEVNQERFRMIYLQTLLAKEKKSYDRQRWGFRRAAQPPDGAAEPRASAPRPPPAPADGADPAPVEESEARPDGEGSPSKGRSASARRPAAAASADRDDRGPPTSVAALRSNFEKIRKGPAQPGSADAEKPFYVNVEFHHERGLVKVNDKEVSDRISSLGSQAMQMERKKSQQSAGQGLGEAPRPHYRGRSSESSCGLDGDYEDAELNPRFLKDNLINANGGNRPPWPPLEYQPYQSIYVGGMMVEGEGKSPLLRSQSTSEQEKRLTWPRRSYSPRSFEDSGGGYTPDCSSNENLTSSEEDFSSGQSSRVSPSPTTYRMFRDKSRSPSQNSQQSFDSSSPPTPQCQKRHRQCQVVVSEATIVGVRKTGQIWPSDGDSTFQGEADSSFGTPPGYGCAADQAEEQRRHQDGLPYIDDSPSSSPHLSSKGRGSLASGALDPTKVSELDLEKGLEMRKWVLSGILASEETYLSHLEALLLPMKPLKAAATTSQPVLTSQQIETIFFKVPELYEIHKEFYDGLFPRVQQWSHQQRVGDLFQKLASQLGVYRAFVDNYGVAMETAEKCCQANAQFAEISENLRARSNKDVKDSTTKNSLETLLYKPVDRVTRSTLVLHDLLKHTPSSHPDHSLLQDALRISQNFLSSINEEITPRRQSMTVKKGEHRQLLKDSFMVELVEGARKLRHIFLFTDLLLCTKLKKQSGGKTQQYDCKWYIPLTDLSFQMVDELEALPNIPLVPDEELDALKIKISQIKSDIQREKRANKGSKVMERLRKKLSEQESLLLLMSPSMAFRVHSRNGKSYTFLISSDYERAEWRESIREQQKKCFKSFSLTSVELQMLTNSCVKLQTVHHIPLTINKEDDESPGLYGFLHVIVHSATGFKQSSNLYCTLEVDSFGYFVNKAKTRVYRDTTEPNWNEEFEIELEGSQTLRILCYEKCYNKMKMTKEDGESADKLMGKGQVQLDPQTLQDRDWQRTVIDMNGIEVKLSVKFTSREFSLKRMPSRKQTGVFGVKIAVVTKRERSKVPYIVRQCVEEIERRGMEEVGIYRVSGVATDIQALKAAFDVNNKDVSVMMSEMDVNAIAGTLKLYFRELPEPLFTDEFYPNFAEGIALSDPVAKESCMLNLLLSLPEANLLTFLFLLDHLKRVAEKETVNKMSLHNLATVFGPTLLRPSEKESKLPANPSQPITMTDSWSLEVMSQVQVLLYFLQLEAIPAPDSKRQSILFSTEV
modifications: biotinylated by BioID2 in vivo

binding: binds
B2: GSTM1 (protein, UniProt P10649 1-218)
chain: MPMILGYWNVRGLTHPIRMLLEYTDSSYDEKRYTMGDAPDFDRSQWLNEKFKLGLDFPNLPYLIDGSHKITQSNAILRYLARKHHLDGETEEERIRADIVENQVMDTRMQLIMLCYNPDFEKQKPEFLKTIPEKMKLYSEFLGKRPWFAGDKVTYVDFLAYDILDQYRMFEPKCLDAFPNLRDFLARFEGLKKISAYMKSSRYIATPIFSKMAHWSNK
modifications: biotinylated by BioID2 in vivo

binding: binds
B3: CLINT1 (protein, UniProt Q99KN9 1-631)
chain: MLIFMYLYVCVCTCTCAFSLCSTNVVMNYSEIESKVREATNDDPWGPSGQLMGEIAKATFMYEQFPELMNMLWSRMLKDNKKNWRRVYKSLLLLAYLIRNGSERVVTSAREHIYDLRSLENYHFVDEHGKDQGINIRQKVKELVEFAQDDDRLREERKKAKKNKDKYVGVSSDSVGGFRYNERYDPEPKSKWDEEWDKNKSAFPFSDKLGELSDKIGSTIDDTISKFRRKDREDSPERCSDSDEEKKARRGRSPKGEFKDEEETVTTKHIHITQATETTTTRHKRTANPSKTIDLGAAAHYTGDKASPDQNASTHTPQSSAKPSVPSSKSSGDLVDLFDGSSQSAGGSADLFGGFADFGSAAASGNFPSQATSGNGDFGDWSAFNQAPSGPVASGGELFGSAPQSAVELISASQPALGPPPAASNSADLFDLMGSSQATMTSSQSMNFSLMSTNTVGLGLPMSRSQNTDMVQKSASKTLPSTWSDPSVNISLDNLLPGMQPSKPQQPSLNTMIQQQNMQQPLNVMTQSFGAVNLSSPSNMLPVRPQTNPLLGGPMPMNMPGVMTGTMGMAPLGNSAGMSQGMVGMNMNMGMSASGMGLSGTMGMGMPSMAMPSGTVQPKQDAFANFANFSK
modifications: biotinylated by BioID2 in vivo

binding: binds
B4: DLGAP2 (protein, UniProt Q8BJ42 1-1059)
chain: MGTAQVLPGILQKHCCILPDRNTESQCTLCGEPEEEEGGDLAQPGLSFPGPAEEDIDQQYSWSPTQHFNEERYSPAPRNMKGLTGSRNQPQLCAGHTCGLSPPDDCEHPHDHMHHGSDVRQPYLLSPAESCPMDHHRCSPRSSVHSECMMMPVMLGDHVSSSTFPRMHYSSHYDTRDDCAMSHTSTKVNRIPANLLDQFEKQLPLHRDGFHTLQYQRASAATEQRNESPGRIRHLVHSVQKLFTKSHSLEGSSKSNINGTKSDSRVDDHHQSHLSKHSKRSKSKERKPESKHKSGMSSWWSSDDNLDSDSTYRTPSVAHRHHMDHIPHCYPEALQSPFGDLSLKTSKSNNDVKCSACEGLALTPDTRYMKRSSWSTLTVSQAKEAYRKSSLNLDKPLVHPEIKPSLRPCHYLQVPQDDWGAYPTGGKEEEIPCRRMRSGSYIKAMGDEESGESDSSPKTSPTVAIRPEPLLKPIIQRPLGDHQTQSYLQAATEVPVGHSLNPSINYNSPKFRSRNQSYMRAVSTLSQASCVSQMSEAEVNGQFESVCESVFSEVESQAMDALDLPGCFRTRSHSYLRAIQAGYSQDDECIPVMTSSNMTSTIRSTAAVSYTNYKKTPPPVPPRTTSKPLISVTAQSSTESTQDAYQDSRAQRMSPWPQDSRGGLYNSMDSLDSNKAMNLALETAAAQRHAADTQSSSTRSIDKAVLASKAEELLKSRCSSIGVQDSEFPDHQPYPRSDVETATDSDTESRGLREYHSVGVQVEDEKRHGRFKRSNSVTAAVQADLELEGFPGHVSMEDKGLQFGSSFQRHSEPSTPTQYGALRTVRTQGLFSYREDYRTQVDTSTLPPPDPWLEPSLDTVETGRMSPCRRDGSWFLKLLHTETKRMEGWCKEMEREAEENDLLEDILGKIRSAVGSAQLLMSQKFQQFYWLCQQNMDPSAMPRPTSQDLAGYWDMLQLSVEDVSMKFDELHQLKLNDWKIIESPERKEERKIPPPIPKKPPKGKFPITREKSLDLPDRQRQEARRRLMAAKRAASFRQNSATERADSIEIYIPEAQTRL
modifications: biotinylated by BioID2 in vivo

binding: binds
B5: DLGAP3 (protein, UniProt Q6PFD5 1-977)
chain: MRGYHGDRGSHPRPARFADQQHMDVGPAARAPYLLGSREAFSTEPRFCAPRAGLGHLSPEGPLSLSEGPSSVGPEGGPGGVGAGGGSSTFPRMYPGQGPFDTCEDCVGHPQGKGATRLPPTLLDQFEKQLPVQQDGFHTLPYQRGPAGPGPGPGSGAAPEARSESPSRIRHLVHSVQKLFAKSHSLEAPGKRDYNGPKADGRGSSGGDSYSGPGSGGTPTSHHHHHHHHHHHHQSRHGKRSKSKDRKGDGRHQTKATGWWSSDDNLDSDSGFLGGRPPGEPGGPFCLDAPDGSYRDLSFKGRSGGSEGRCLACTGMSMSLDGQSVKRSAWHTMMVSQGRDGYPGAGPGKGLLGPETKAKARTYHYLQVPQDDWGGYPTGGKDGEIPCRRMRSGSYIKAMGDEESGDSDGSPKTSPKALARRFASRRSSSVDTARINCCVPPRIHPRSSIPGYSRSLTTGQLSEEFNQQLEAVCGSVFGELESQAVDALDLPGCFRMRSHSYLRAIQAGCSQDDDCLPLLAAPASVSGRPGSSFNFRKAPPPIPPGSQAPPRISITAQSSTDSAHESFTAAEGPARRCSSADGLDGPTMGARTLELAPVPPRASPKPPTLIIKTIPGREELRSLARQRKWRPSIGVQVETISDSDTENRSRREFHSIGVQVEEDKRRARFKRSNSVTAGVQADLELEGLAGLATVATEDKALQFGRSFQRHASEPQPGPRAPTYSVFRTVHTQGQWAYREGYPLPYEPPATDGSPGPTPVPAPGPGSGRRDSWMERGSRSLPDSGRTSPCPRDGEWFIKMLRAEVEKLEHWCQQMEREAEDYELPEEILEKIRSAVGSTQLLLSQKVQQFFRLCQQSLDPTAFPVPTFQDLAGFWDLLQLSIEDVTLKFLELQQLKANSWKLLEPKEEKKVPPPIPKKPSRGRGVPVKERSLDSVDRQRQEARKRLLAAKRAASFRHSSATESADSIEIYIPEAQTRL
modifications: biotinylated by BioID2 in vivo

These are yes or no findings as the source states them, for the method shown. Binding seen in cells or lysates may run through a third protein. Here binding means that the protein was enriched with, or labelled near, the bait; the list need not be complete. Sequences can lack the tags named with a protein. One block for each molecule: values may come before it.
